Reference: patent US20250041377A1 (ENLITISA (SHANGHAI) PHARMACEUTICAL CO., LTD., priority 2018, published 2025)

Assay: peptide made by a vendor (Fmoc solid-phase peptide synthesis; Fmoc-Lys-Boc-Wang resin (0.3 mmol/g; GL Biochem))
Conditions: whole synthesis, UV 220 nm

**Q.** With AKPSY[Hyp][Hyp]TYK as the substance, how does the “purity (crude or final not stated)” value read?
**A.** 97.89%

Where no end group is shown, it is not given here. [ ]: non-standard residue; d: D form. Hyp = O=C(O)[C@@H]1C[C@@H](O)CN1
